Laboratory results from patent US20250115671A1 (BEIGENE, published 2025).
These are yes or no findings as the source states them, for the method shown. Some results given as binding are weak or reduced against the parent protein; the word gives no strength.

The chains behind the UniProt entries cited, without tags or fusion partners. Where a name states a change or a piece, a line headed by the entry shows the natural chain unless it says otherwise.
UniProt P51685: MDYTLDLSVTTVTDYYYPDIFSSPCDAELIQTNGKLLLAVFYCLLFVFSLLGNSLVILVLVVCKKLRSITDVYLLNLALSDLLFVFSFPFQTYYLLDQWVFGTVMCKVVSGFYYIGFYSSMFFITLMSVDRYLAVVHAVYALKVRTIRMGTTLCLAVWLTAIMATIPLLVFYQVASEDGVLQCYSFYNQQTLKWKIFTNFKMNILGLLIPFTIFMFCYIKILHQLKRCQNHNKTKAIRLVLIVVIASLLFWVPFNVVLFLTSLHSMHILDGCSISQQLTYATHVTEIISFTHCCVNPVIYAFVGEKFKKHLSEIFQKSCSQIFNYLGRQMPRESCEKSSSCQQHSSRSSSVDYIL
UniProt P56484: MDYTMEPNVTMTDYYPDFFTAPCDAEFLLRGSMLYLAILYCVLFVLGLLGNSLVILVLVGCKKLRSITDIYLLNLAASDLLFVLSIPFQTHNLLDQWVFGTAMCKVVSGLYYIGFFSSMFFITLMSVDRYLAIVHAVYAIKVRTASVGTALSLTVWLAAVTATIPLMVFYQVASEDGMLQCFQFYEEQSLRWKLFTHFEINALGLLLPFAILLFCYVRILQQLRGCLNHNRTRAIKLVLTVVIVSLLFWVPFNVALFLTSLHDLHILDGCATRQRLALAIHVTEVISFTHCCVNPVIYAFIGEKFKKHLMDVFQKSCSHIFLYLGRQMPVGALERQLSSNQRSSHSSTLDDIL

Columns and labels:
CCR8_Ch1 (mouse; human) = CCR8_Ch1 (mouse; human) (UniProt P51685); assay: flow cytometry on transfected Expi293 cells, serial dilution
CCR8_Ch5 (human; mouse) = CCR8_Ch5 (human; mouse) (UniProt P56484); assay: as above
[1] = molecular target: human CCR8 N-terminal domain-mouse Fc tag fusion protein (human (CCR8 part), mouse IgG2a Fc); assay: ELISA, plate coated with human CCR8 N-terminal domain-Fc fusion

Measured: binding

B1: Ch305 (antibody, V domains shown)
VH: QVQMKQSGPSLVQPSQSLSITCTVSGFSLTSYGVHWVRQSPGKGLEWLGVIWRGGTTDYNAAFMSRLSFTKDSSKSQVFFKLNSLQADDTAIYYCAKNRVTTVVAPNFYAMDYWGQGTSVTVSS
VL: DIVMTQSPSSLAVSVGEKVTMSCKSSQSLLYSGNQKNYLAWYQQKPGQSPKLLIYWASTRKSGVPDRLTGSGSGTDFTLTISSVKAEDLAAYYCQQYYTYPLTFGAGTRLEIK
binds: all assays above
